Data as given in PMC9118924.
No constants are given. Whether binding was seen depends on the method and setting. Binding seen in cells or lysates may run through a third protein. Some entries that bind do so weakly or less than the wild type.

Protein sequences, listed by entry. Tags and fused reporters are not part of them. Lines headed by an entry give the natural chain unless they say otherwise; changes in a name come on top. Chains listed by the source or under a name are the forms on record and can include a tag or linker.
UniProt Q9NQS5: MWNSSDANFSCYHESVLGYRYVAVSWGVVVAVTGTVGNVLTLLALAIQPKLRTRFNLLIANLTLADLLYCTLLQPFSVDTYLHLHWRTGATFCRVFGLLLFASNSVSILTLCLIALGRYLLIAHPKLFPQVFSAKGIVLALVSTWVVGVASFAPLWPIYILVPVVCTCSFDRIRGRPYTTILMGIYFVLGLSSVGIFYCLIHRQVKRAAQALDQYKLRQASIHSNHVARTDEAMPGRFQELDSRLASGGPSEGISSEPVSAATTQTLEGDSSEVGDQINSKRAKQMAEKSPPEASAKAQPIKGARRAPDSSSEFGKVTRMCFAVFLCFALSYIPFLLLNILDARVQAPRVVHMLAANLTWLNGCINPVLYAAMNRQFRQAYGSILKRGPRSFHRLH
Thr^263Ala,Thr^264Ala-GPR84-eYFP (Q9NQS5, form named): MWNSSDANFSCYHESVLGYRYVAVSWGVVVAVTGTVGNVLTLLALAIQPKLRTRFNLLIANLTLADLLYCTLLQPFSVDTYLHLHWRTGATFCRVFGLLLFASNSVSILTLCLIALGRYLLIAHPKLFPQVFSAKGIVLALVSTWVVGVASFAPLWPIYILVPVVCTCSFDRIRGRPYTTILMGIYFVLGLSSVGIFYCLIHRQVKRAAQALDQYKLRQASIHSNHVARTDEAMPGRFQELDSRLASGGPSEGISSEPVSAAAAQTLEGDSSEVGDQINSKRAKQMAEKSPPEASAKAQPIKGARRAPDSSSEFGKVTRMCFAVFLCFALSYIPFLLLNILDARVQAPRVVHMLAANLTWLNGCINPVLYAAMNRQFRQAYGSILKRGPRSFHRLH
Ser^221Ala, Ser^224Ala-GPR84-eYFP (Q9NQS5, form named): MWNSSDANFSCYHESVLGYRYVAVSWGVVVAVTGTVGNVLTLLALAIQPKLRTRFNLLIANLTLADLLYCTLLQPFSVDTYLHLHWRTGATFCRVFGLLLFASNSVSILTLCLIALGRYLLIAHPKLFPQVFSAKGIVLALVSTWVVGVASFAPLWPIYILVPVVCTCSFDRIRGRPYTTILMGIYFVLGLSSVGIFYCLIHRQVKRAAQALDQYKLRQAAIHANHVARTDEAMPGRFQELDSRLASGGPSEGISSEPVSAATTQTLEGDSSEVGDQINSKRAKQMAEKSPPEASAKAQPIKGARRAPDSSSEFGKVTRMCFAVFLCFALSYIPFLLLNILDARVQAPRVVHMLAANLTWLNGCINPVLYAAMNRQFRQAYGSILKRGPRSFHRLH
UniProt P49407: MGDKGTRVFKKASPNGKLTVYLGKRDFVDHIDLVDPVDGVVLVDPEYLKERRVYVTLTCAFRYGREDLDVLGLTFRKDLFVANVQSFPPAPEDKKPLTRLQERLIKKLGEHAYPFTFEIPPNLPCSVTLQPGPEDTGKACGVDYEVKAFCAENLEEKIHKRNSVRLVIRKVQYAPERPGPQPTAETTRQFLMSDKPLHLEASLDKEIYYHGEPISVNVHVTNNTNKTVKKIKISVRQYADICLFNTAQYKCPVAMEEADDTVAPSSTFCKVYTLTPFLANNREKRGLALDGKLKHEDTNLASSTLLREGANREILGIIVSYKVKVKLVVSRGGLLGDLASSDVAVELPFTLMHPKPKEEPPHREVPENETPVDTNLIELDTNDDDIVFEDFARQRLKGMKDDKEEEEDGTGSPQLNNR

Experiments:
Test in all cases: FRET or BRET; HEK293T cells transiently co-transfected with GPR84-eYFP (wild type or mutant) and arrestin-2- or arrestin-3-nanoluciferase (100:1); live cells in HBSS pH 7.4, nano-Glo substrate, agonist 2-HTP at varying concentrations (6-OAU too for wild type and Arg172Ala; co-addition of PSB-16671 or DL-175 for wild type) for 5 min at 37 °C; net BRET 535/475 nm
[1] = target: Thr^263Ala,Thr^264Ala-GPR84-eYFP (human) (UniProt Q9NQS5)
[2] = target: Ser^221Ala, Ser^224Ala-GPR84-eYFP (human) (UniProt Q9NQS5)
[3] = target: FLAG-human GPR84-eYFP (human) (UniProt Q9NQS5)

## arrestin-2 fused to nanoluciferase (from UniProt P49407 1-418)
[1]
  binding: no binding
[2]
  binding: binds
[3]
  binding: binds
